Data source: PubChem BioAssay AID1224826 (NIAID, 2016)
The deposit covers about 17,000 reagents; shown is a random part of them. In the full data, about 1,110 (6.6%) are marked active. 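Active means lowered or raised reporter signal; replicate intensities are raw and not normalised per plate.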 Further read-outs or replicates are left out here.

Screen: 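Regulators of Tlr4 signalling leading to Tnf-alpha expression in macrophages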 (primary screen)
Cells: RAW264.7 G9 macrophages from mouse bearing reporters for p65 (GFP) and the Tnf promoter (mCherry)
Reagent: siRNA pool against mouse genes, 100 nM
Time to read-out: 16 h of LPS stimulation, after 2 days of siRNA transfection
Conditions: bacterial lipopolysaccharide (Salmonella minnesota R595), 10 ng/ml
Measured: 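Nuclear mCherry signal of the Tnf promoter reporter measured by imaging after background removal, scaled to each plate median and turned into robust z-scores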
Direction: Tnf reporter robust z-score: higher = stronger Tnf promoter reporter signal after LPS
Active means: 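a well counts as active at a score of -1.3 or below (Tlr4 knock-down control median) or above 3 (raised signal); controls and wells holding fewer than 50 cells are excluded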
Calls: active = Tnf reporter clearly lowered or raised; inactive = no clear change in Tnf reporter

| target | Tnf reporter robust z-score | fewer than 50 cells in well | call |
| --- | --- | --- | --- |
| Il33 (interleukin 33) | 2.46 | enough cells in well | inactive |
| Rgs16 (regulator of G-protein signaling 16) | 0.69 | enough cells in well | inactive |
| Tnfsf13b (tumor necrosis factor (ligand) superfamily, member 13b) | -0.31 | enough cells in well | inactive |
| Lamp2 (lysosomal-associated membrane protein 2) | 0.24 | enough cells in well | inactive |
| Slc16a14 | 2.99 | enough cells in well | inactive |
| Tmem169 (transmembrane protein 169) | 0.82 | enough cells in well | inactive |
| Pycard (PYD and CARD domain containing) | 0.05 | enough cells in well | inactive |
| Tmem74 (transmembrane protein 74) | -1.18 | enough cells in well | inactive |
| Trex1 (three prime repair exonuclease 1) | 0.36 | enough cells in well | inactive |
| Cmtm4 (CKLF-like MARVEL transmembrane domain containing 4) | 0.51 | enough cells in well | inactive |
| Phf11a (PHD finger protein 11A) | 0.97 | enough cells in well | inactive |
| Atr (ataxia telangiectasia and Rad3 related) | – | fewer than 50 cells per well; well left out of calls | inactive |
| Kcne3 | 0.9 | enough cells in well | inactive |
| Unc5a (unc-5 netrin receptor A) | -1.01 | enough cells in well | inactive |
| Snai3 (snail family zinc finger 3) | – | fewer than 50 cells per well; well left out of calls | inactive |
| Tfg (Trk-fused gene) | 0.8 | enough cells in well | inactive |

Quoted from the entries so far for reference:
| target | Tnf reporter robust z-score | fewer than 50 cells in well | call |
| --- | --- | --- | --- |
| Atr (ataxia telangiectasia and Rad3 related) | – | fewer than 50 cells per well; well left out of calls | inactive |
| Kcne3 | 0.9 | enough cells in well | inactive |

Next entries follow.
| target | Tnf reporter robust z-score | fewer than 50 cells in well | call |
| --- | --- | --- | --- |
| Atp6v1g2 (ATPase, H+ transporting, lysosomal V1 subunit G2) | -0.16 | enough cells in well | inactive |
| St6gal1 (beta galactoside alpha 2,6 sialyltransferase 1) | -0.3 | enough cells in well | inactive |
| Grik3 (glutamate receptor, ionotropic, kainate 3) | -0.26 | enough cells in well | inactive |
| Tns2 (tensin 2) | 0.74 | enough cells in well | inactive |
| Smc5 (structural maintenance of chromosomes 5) | – | fewer than 50 cells per well; well left out of calls | inactive |
| Ppp3r2 | 0.66 | enough cells in well | inactive |
| Or4k42 (olfactory receptor family 4 subfamily K member 42) | 0.19 | enough cells in well | inactive |
| Ik (IK cytokine) | -0.19 | enough cells in well | inactive |
| Mtpap (mitochondrial poly(A) polymerase) | 2.49 | enough cells in well | inactive |
| Vmn1r35 (vomeronasal 1 receptor 35) | 0.03 | enough cells in well | inactive |
| Paxx (non-homologous end joining factor) | -0.75 | enough cells in well | inactive |
| Or1j11 (olfactory receptor family 1 subfamily J member 11) | -0.81 | enough cells in well | inactive |
| Asnsd1 (asparagine synthetase domain containing 1) | – | fewer than 50 cells per well; well left out of calls | inactive |
| Tfcp2 (transcription factor CP2) | 1.14 | enough cells in well | inactive |
| Ccr5 (C-C motif chemokine receptor 5) | -0.18 | enough cells in well | inactive |
| Lpar6 (lysophosphatidic acid receptor 6) | 0.59 | enough cells in well | inactive |
| Vmn1r26 (vomeronasal 1 receptor 26) | -0.5 | enough cells in well | inactive |
| Hbp1 (high mobility group box transcription factor 1) | 0.21 | enough cells in well | inactive |
| Mlec (malectin) | -0.27 | enough cells in well | inactive |
| P4ha3 | – | fewer than 50 cells per well; well left out of calls | inactive |
| Ifne (interferon epsilon) | 4.29 | enough cells in well | active |
| Ddx46 (DEAD box helicase 46) | -0.07 | enough cells in well | inactive |
| Uhmk1 (U2AF homology motif (UHM) kinase 1) | -0.77 | enough cells in well | inactive |
| Pde6h (phosphodiesterase 6H, cGMP-specific, cone, gamma) | -0.11 | enough cells in well | inactive |
